No constants are given. Whether binding was seen depends on the method and setting. In cells and extracts the contact can be indirect. A result given as binding can be weak or reduced; the word gives no strength. Where a sequence is shown, tags or fusion partners need not be part of it.
What was measured:
Assay in all cases: pull-down; GST-PIG-2 constructs or GST alone on glutathione-sepharose, incubated 12 h at 4° with HEK 293 lysate expressing full-length YWHAH; washed with NETN (300 mM NaCl, 0.5% NP-40); blot with anti-Myc; only the target purified
[1] = molecular target: GST-PIG-2 full length (1-184) (human) (UniProt O60565)
[2] = molecular target: GST-PIG-2 (1-100) (human) (UniProt O60565)
[3] = molecular target: GST-PIG-2 (1-67) (human) (UniProt O60565)

Sequences of proteins named here, by UniProt entry; tags and fusion partners are left off. A change or cut given only in a name is not applied to a line headed by its entry.
UniProt O60565: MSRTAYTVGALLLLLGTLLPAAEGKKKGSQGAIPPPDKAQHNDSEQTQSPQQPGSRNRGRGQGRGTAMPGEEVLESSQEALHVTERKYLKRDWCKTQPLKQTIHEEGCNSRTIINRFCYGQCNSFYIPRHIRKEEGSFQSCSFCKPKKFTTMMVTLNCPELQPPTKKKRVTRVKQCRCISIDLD

binding [1]: binds
binding [2]: binds
binding [3]: binds
B1: Myc-tagged YWHAH (tyrosine 3-monooxygenase/tryptophan 5-monooxygenase activation protein, eta polypeptide; 14-3-3 eta), full length (protein, UniProt Q04917 1-246)
chain: MGDREQLLQRARLAEQAERYDDMASAMKAVTELNEPLSNEDRNLLSVAYKNVVGARRSSWRVISSIEQKTMADGNEKKLEKVKAYREKIEKELETVCNDVLSLLDKFLIKNCNDFQYESKVFYLKMKGDYYRYLAEVASGEKKNSVVEASEAAYKEAFEISKEQMQPTHPIRLGLALNFSVFYYEIQNAPEQACLLAKQAFDDAIAELDTLNEDSYKDSTLIMQLLRDNLTLWTSDQQDEEAGEGN

Reference: publication PMC1459871
